# From paper PMC12404741
# Chains of the proteins cited; added tags and fusions are not shown.
# UniProt O00270: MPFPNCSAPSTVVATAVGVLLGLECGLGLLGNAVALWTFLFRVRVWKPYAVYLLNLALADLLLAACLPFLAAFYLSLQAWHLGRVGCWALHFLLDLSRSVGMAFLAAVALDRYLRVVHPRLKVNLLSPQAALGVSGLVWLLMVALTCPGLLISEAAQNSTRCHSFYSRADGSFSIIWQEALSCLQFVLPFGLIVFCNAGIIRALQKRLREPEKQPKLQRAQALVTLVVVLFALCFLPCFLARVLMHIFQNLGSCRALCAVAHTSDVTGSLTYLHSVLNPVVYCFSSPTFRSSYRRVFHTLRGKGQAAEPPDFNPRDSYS
# UniProt P08754: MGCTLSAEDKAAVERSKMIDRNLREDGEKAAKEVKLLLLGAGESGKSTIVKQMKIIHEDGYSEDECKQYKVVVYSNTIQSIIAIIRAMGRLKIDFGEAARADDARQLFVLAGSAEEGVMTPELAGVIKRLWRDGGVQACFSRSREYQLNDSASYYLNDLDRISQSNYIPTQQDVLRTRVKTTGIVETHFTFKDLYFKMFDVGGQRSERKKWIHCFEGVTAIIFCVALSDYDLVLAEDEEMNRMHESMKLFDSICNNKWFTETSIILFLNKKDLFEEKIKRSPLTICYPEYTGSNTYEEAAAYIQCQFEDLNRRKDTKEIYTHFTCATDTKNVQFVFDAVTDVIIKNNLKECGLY
# UniProt P63092: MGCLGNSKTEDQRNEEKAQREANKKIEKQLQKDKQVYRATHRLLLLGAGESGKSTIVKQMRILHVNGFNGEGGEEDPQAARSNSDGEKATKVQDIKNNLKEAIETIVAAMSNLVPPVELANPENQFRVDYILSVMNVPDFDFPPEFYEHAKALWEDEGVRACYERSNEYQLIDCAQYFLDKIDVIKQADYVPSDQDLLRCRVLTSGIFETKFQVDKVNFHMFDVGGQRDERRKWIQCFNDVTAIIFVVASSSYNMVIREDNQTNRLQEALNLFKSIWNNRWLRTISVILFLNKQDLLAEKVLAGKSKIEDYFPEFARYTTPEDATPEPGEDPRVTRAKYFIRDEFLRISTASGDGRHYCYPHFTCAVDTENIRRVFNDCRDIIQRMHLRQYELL
# UniProt P62873: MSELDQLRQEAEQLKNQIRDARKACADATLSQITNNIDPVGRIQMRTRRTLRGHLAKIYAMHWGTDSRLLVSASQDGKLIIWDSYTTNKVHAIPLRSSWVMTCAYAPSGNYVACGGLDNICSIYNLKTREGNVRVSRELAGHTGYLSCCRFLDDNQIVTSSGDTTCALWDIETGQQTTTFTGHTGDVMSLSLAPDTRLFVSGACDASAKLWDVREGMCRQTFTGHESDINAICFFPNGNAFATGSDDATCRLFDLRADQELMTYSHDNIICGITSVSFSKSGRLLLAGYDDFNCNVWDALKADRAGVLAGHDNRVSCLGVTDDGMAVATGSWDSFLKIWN
# UniProt P62879: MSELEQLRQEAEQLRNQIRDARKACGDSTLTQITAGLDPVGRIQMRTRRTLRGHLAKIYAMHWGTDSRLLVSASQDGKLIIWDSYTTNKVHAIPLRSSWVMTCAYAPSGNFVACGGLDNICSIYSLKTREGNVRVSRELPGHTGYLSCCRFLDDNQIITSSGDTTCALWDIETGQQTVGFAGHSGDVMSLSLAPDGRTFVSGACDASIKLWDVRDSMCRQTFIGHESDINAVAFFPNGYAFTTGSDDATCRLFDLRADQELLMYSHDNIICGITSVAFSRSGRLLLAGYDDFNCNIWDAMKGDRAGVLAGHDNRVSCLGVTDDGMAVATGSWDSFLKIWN
# Results are given in words; binding and its absence hold for the method and conditions named. Binding seen in cells or lysates may run through a third protein. These calls come from enrichment with a bait or labelling near it, and not all partners need be listed.
# B1: STT3B (enzyme, UniProt Q8TCJ2 1-826)
# chain: MAEPSAPESKHKSSLNSSPWSGLMALGNSRHGHHGPGAQCAHKAAGGAAPPKPAPAGLSGGLSQPAGWQSLLSFTILFLAWLAGFSSRLFAVIRFESIIHEFDPWFNYRSTHHLASHGFYEFLNWFDERAWYPLGRIVGGTVYPGLMITAGLIHWILNTLNITVHIRDVCVFLAPTFSGLTSISTFLLTRELWNQGAGLLAACFIAIVPGYISRSVAGSFDNEGIAIFALQFTYYLWVKSVKTGSVFWTMCCCLSYFYMVSAWGGYVFIINLIPLHVFVLLLMQRYSKRVYIAYSTFYIVGLILSMQIPFVGFQPIRTSEHMAAAGVFALLQAYAFLQYLRDRLTKQEFQTLFFLGVSLAAGAVFLSVIYLTYTGYIAPWSGRFYSLWDTGYAKIHIPIIASVSEHQPTTWVSFFFDLHILVCTFPAGLWFCIKNINDERVFVALYAISAVYFAGVMVRLMLTLTPVVCMLSAIAFSNVFEHYLGDDMKRENPPVEDSSDEDDKRNQGNLYDKAGKVRKHATEQEKTEEGLGPNIKSIVTMLMLMLLMMFAVHCTWVTSNAYSSPSVVLASYNHDGTRNILDDFREAYFWLRQNTDEHARVMSWWDYGYQIAGMANRTTLVDNNTWNNSHIALVGKAMSSNETAAYKIMRTLDVDYVLVIFGGVIGYSGDDINKFLWMVRIAEGEHPKDIRESDYFTPQGEFRVDKAGSPTLLNCLMYKMSYYRFGEMQLDFRTPPGFDRTRNAEIGNKDIKFKHLEEAFTSEHWLVRIYKVKAPDNRETLDHKPRVTNIFPKQKYLSKKTTKRKRGYIKNKLVFKKGKKISKKTV
# B2: STT3A (enzyme, UniProt P46977 1-705)
# chain: MTKFGFLRLSYEKQDTLLKLLILSMAAVLSFSTRLFAVLRFESVIHEFDPYFNYRTTRFLAEEGFYKFHNWFDDRAWYPLGRIIGGTIYPGLMITSAAIYHVLHFFHITIDIRNVCVFLAPLFSSFTTIVTYHLTKELKDAGAGLLAAAMIAVVPGYISRSVAGSYDNEGIAIFCMLLTYYMWIKAVKTGSICWAAKCALAYFYMVSSWGGYVFLINLIPLHVLVLMLTGRFSHRIYVAYCTVYCLGTILSMQISFVGFQPVLSSEHMAAFGVFGLCQIHAFVDYLRSKLNPQQFEVLFRSVISLVGFVLLTVGALLMLTGKISPWTGRFYSLLDPSYAKNNIPIIASVSEHQPTTWSSYYFDLQLLVFMFPVGLYYCFSNLSDARIFIIMYGVTSMYFSAVMVRLMLVLAPVMCILSGIGVSQVLSTYMKNLDISRPDKKSKKQQDSTYPIKNEVASGMILVMAFFLITYTFHSTWVTSEAYSSPSIVLSARGGDGSRIIFDDFREAYYWLRHNTPEDAKVMSWWDYGYQITAMANRTILVDNNTWNNTHISRVGQAMASTEEKAYEIMRELDVSYVLVIFGGLTGYSSDDINKFLWMVRIGGSTDTGKHIKENDYYTPTGEFRVDREGSPVLLNCLMYKMCYYRFGQVYTEAKRPPGFDRVRNAEIGNKDFELDVLEEAYTTEHWLVRIYKVKDLDNRGLSRT
# Molecular target: Flag-tagged GPR31 (interactome bait) (human) (UniProt O00270)
# Assay: affinity purification with mass spectrometry; lysates of human hepatocyte cells with or without overexpression of Flag-tagged GPR31, immunoprecipitated with an anti-Flag antibody, LC-MS/MS; proteins with more than 2 unique peptides included
row,binding,Molecule
1,binds,B1
2,binds,B2

# Molecular target: Flag-tagged GPR31 (interactome bait) (human) (UniProt O00270)
# Assay: as above
# Remark: another data set of the same source
row,binding,Molecule
1,binds,Gαi3 (hit of the GPR31 interactome) (from UniProt P08754 1-354)
2,binds,Gαs (hit of the GPR31 interactome) (from UniProt P63092 1-394)
3,binds,Gβ1 (hit of the GPR31 interactome) (from UniProt P62873 1-340)
4,binds,Gβ2 (hit of the GPR31 interactome) (from UniProt P62879 1-340)
